According to patent US20100143449A1, “ANALGESIC COMPOSITION OF TOPICALLY APPLIED NONSTEROIDAL ANTIINFLAMMATORY DRUGS AND OPIOIDS” (priority 2007, published 2010):

Test system: Male Crl:CD-1 (ICR) BR mice
Assay: Radiant heat tail-flick assay after topical drug application to the tail
Assay type: in vivo
Settings: for ED 50 value, propylene glycol and lauric acid: topical, tail immersed 2 min, tested immediately afterward, vehicle propylene glycol and lauric acid (10:1)
Protocol: All in vivo studies were carried out in accordance with the Declaration of Helsinki and with the Guide for Care and Use of Laboratory Animals, as adopted and promulgated by the Estonian Põllumajandusministeerium. Male Crl:CD-1® (ICR) BR mice (20-25 g) were purchased from Charles River Laboratories (Germany) and were housed in a 12:12-h light-dark cycle temperature-controlled room with food and water freely available. Drugs were obtained from Sigma (St. Louis, Mo., USA). […] Briefly, the distal portion of the tail (2-3 cm) was immersed in a propylene glycol/dH2O (10:1 ratio) alone or propylene glycol and lauric acid combination (10:1) solution containing the indicated drugs for the stated time, usually 2 min.). Analgesia was defined quantitatively as tail-flick latency for an individual animal that was twice its baseline latency or greater using tail flick apparatus (Ugo Basile, Italy). […] ED50 values were determined with GraphPad Software.

Row | SMILES | dose response shift to left of ED50 on addition of lauric acid to propylene glycol [fold] | ED 50 value, propylene glycol and lauric acid [mmol]
1 | CN1CC[C@]23c4c5ccc(O)c4O[C@H]2[C@@H](O)C=C[C@H]3[C@H]1C5 [Morphine, morphine] | 19 | 0.4
2 | CCN(CC)CC(=O)Nc1c(C)cccc1C [Lidocaine, lidocaine] | – | 0.35
